# In patent publication US20230255975A1, “METHODS FOR TREATING CANCER WITH COMBINATION THERAPIES” (Celgene Corporation, priority 2020, published 2023):
# Some of these results come from one statement about several compounds together.
# Tested on: NEK2 knockdown cells
# Test: Apoptosis by Annexin V staining in NEK2 knockdown cells
# Format: cell-based
# Conditions: combined with NEK2 shRNA knockdown
compound,measurement,value
"N#Cc1ccc(N2CCN(Cc3ccc(COc4cccc5c4CN([C@H]4CCC(=O)NC4=O)C5=O)cc3)CC2)c(F)c1 [Compound 6, (S)-4-(4-(4-(((2-(2,6-dioxopiperidin-3-yl)-1-oxoisoindolin-4-yl)oxy)methyl)benzyl)piperazin-1-yl)-3-fluorobenzonitrile]",increase of percentage of apoptotic cells in comparison to DMSO control,2-3 fold
